Experimental data as given in paper doi:10.1101/2022.06.20.496767.
These are yes or no findings as the source states them, for the method shown. Some binding calls cover weakened binding; strength is not graded here.

Amino acid sequences for entries named in this document (tags omitted).
UniProt Q6Q1P4: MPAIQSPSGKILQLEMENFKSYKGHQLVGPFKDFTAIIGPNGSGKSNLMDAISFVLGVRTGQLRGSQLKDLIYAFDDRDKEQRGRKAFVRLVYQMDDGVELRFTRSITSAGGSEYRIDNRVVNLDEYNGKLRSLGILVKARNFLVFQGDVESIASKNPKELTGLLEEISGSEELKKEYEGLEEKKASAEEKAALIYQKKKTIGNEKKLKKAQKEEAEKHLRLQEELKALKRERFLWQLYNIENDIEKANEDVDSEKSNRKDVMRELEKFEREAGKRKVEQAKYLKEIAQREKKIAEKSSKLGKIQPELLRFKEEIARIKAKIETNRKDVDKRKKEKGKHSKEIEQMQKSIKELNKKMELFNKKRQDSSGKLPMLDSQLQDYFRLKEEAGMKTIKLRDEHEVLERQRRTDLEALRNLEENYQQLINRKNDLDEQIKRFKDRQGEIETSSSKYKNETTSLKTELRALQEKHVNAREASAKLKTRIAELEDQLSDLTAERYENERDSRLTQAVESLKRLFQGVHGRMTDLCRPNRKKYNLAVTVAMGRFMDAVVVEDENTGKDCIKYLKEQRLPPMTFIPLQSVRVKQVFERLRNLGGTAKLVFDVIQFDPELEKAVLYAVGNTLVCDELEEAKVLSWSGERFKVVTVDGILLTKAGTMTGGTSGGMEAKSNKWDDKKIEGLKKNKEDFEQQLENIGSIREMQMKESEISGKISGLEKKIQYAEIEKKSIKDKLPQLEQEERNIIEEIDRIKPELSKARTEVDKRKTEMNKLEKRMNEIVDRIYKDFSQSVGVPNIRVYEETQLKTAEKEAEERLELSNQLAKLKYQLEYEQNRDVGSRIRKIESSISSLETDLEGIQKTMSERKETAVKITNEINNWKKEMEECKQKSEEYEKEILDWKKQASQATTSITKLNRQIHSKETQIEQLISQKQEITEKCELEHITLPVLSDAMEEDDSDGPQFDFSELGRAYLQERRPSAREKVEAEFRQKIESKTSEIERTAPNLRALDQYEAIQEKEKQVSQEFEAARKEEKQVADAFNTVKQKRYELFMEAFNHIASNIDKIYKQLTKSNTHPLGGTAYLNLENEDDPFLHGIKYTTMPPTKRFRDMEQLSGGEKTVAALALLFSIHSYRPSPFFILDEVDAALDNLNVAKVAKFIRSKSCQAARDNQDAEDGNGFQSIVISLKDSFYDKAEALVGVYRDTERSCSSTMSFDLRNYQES

Tests used:
[1] = biological target: T1, SCC3 (yeast two-hybrid construct) (Arabidopsis thaliana) (UniProt O82265); experiment: two-hybrid
T1 sequence: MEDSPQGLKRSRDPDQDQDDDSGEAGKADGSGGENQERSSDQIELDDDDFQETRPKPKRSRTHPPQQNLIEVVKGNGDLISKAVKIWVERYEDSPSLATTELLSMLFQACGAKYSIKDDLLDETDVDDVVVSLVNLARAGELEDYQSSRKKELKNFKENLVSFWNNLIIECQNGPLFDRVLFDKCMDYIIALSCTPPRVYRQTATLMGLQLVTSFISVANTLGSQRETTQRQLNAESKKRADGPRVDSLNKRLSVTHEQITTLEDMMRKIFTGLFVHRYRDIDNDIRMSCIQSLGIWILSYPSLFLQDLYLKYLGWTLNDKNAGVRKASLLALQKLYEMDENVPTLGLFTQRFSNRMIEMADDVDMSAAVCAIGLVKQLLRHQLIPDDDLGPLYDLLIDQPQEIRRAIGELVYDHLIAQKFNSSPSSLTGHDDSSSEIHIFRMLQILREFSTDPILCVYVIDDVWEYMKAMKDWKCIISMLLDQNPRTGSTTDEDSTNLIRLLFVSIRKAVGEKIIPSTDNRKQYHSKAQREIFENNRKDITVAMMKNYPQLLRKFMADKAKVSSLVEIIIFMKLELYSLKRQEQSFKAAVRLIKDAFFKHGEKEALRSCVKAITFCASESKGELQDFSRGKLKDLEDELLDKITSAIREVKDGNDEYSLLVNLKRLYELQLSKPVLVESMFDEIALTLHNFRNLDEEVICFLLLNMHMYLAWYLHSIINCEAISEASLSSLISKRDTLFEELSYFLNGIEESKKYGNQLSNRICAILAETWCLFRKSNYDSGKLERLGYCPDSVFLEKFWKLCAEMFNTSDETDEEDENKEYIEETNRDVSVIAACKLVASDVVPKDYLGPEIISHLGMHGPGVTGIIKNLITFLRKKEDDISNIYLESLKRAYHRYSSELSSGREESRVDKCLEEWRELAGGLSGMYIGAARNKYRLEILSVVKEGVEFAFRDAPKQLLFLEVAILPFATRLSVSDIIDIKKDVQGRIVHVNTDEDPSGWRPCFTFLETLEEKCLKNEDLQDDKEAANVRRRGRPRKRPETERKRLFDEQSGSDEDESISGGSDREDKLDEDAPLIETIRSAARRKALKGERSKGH

[2] = biological target: SMC1 (yeast two-hybrid construct) (Arabidopsis thaliana) (UniProt Q6Q1P4); experiment: two-hybrid

B1: RAD21.2 (yeast two-hybrid construct in pGADT7) (protein, UniProt Q9FQ19 1-693)
chain: MFYSHTLLARKGPLGTVWCAAHVHQRLKKSQYTSINIPDTVDNIMFPEVPLALRTSSHLLVGVVRIYSKKVDYLYNDWNLLNTWVAKAFVSTQVNLPEDARQAPPESVTLPQALNLDEFDLEDDTLDMEFDNHTRSEEDITLTDQIPTGIDPYVAVTFDEDIISESIPMDVDQSTEPVSRHTGEIDVETAHETGPDNEPRDSNIAFDTGTYSPRNVTEEFTEVQDPRQSNLTEERIPNSERNDATSPGTVPEIERMRDAAHDLSPTSHPSFAAQQQDVRVERTESLDETLNEKEPTIPSIDEEMLNSGRHSAFELRSGSPGSAAGSEEERADFVHPSPQLVLQPSPPPQPQRRARKRKNFDGVTVLTNKNISERLKDPSDTLRKRKKMPSSKLKFWRMNNQSRKDQNFNEPLFTGFSDDLRNVFEKDYVASKPHLAVSDETLPEPASVSPTREAEVEINPVSPIPDSTNPDSTVQLSPAQQTEDVLDSAGPRPAHAESVATEAQSPRTFDNDDMGIEHLRDGGFPVYMPSPPPRSSPFRTDDFTTQSGNWETESYRTEPSTSTVPEDLPGQRNLGLSPVSERTDEELYFLEVGGNSPVGTPASQDSAALTGRARALAQYLKQRSSSSPTTSSHPSGDLSLSEILAGKTRKLAARMFFETLVLKSRGLIDMQQDRPYGDIALKLMPALFSKVQT
[1]
  binding: binds
[2]
  binding: binds
